Paper PMC5896247
No constants are given. Whether binding was seen depends on the method and setting. Some results given as binding are weak or reduced against the parent protein; the word gives no strength.

Sequences of proteins named here, by UniProt entry; tags and fusion partners are left off. Residues count along the entry.
UniProt P25942, residues 21-277: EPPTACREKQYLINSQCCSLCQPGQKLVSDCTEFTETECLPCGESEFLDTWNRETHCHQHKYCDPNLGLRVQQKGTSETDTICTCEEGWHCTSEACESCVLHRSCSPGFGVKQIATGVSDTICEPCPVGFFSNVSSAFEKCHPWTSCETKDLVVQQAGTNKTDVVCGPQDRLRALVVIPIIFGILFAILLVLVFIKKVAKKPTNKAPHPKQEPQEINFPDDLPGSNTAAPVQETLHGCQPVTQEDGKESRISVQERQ
UniProt P27548, residues 112-260: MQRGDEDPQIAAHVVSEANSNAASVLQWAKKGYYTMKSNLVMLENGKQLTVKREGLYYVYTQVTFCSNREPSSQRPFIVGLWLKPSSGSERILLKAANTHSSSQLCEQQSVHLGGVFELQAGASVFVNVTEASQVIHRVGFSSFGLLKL

Biological target: human CD40 on human CD40 transgenic (hCD40Tg) mouse B cells (human) (UniProt P25942)
Experiment: flow cytometry on cells; purified hCD40Tg mouse splenic B cells incubated with or without mAb (m1 isotype), then hexameric mCD40L-h1Fc; bound CD40L detected with anti-human-FITC; only the binder purified

binding: binds
Substance: hexameric mCD40L-h1Fc (from UniProt P27548 112-260) (Fc fusion)
